Measurements from “University of Dundee, Small-Polar-MMV Screening Library” (2021), ChEMBL document CHEMBL3988442.

By UniProt entry, the sequences of proteins in these tests, tags left out. Residues count along the entry.
UniProt P9WNZ1, whole entry: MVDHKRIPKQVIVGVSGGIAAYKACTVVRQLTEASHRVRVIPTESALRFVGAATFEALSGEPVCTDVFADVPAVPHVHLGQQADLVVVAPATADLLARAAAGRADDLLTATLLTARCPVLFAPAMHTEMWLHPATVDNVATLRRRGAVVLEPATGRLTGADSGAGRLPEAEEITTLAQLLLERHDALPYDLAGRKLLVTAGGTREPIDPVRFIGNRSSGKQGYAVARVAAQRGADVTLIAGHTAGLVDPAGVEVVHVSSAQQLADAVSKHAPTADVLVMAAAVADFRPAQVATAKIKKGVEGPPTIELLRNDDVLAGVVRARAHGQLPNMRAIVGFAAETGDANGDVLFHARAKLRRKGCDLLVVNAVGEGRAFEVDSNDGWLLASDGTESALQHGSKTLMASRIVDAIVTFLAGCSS
UniProt I6X8D2, whole entry: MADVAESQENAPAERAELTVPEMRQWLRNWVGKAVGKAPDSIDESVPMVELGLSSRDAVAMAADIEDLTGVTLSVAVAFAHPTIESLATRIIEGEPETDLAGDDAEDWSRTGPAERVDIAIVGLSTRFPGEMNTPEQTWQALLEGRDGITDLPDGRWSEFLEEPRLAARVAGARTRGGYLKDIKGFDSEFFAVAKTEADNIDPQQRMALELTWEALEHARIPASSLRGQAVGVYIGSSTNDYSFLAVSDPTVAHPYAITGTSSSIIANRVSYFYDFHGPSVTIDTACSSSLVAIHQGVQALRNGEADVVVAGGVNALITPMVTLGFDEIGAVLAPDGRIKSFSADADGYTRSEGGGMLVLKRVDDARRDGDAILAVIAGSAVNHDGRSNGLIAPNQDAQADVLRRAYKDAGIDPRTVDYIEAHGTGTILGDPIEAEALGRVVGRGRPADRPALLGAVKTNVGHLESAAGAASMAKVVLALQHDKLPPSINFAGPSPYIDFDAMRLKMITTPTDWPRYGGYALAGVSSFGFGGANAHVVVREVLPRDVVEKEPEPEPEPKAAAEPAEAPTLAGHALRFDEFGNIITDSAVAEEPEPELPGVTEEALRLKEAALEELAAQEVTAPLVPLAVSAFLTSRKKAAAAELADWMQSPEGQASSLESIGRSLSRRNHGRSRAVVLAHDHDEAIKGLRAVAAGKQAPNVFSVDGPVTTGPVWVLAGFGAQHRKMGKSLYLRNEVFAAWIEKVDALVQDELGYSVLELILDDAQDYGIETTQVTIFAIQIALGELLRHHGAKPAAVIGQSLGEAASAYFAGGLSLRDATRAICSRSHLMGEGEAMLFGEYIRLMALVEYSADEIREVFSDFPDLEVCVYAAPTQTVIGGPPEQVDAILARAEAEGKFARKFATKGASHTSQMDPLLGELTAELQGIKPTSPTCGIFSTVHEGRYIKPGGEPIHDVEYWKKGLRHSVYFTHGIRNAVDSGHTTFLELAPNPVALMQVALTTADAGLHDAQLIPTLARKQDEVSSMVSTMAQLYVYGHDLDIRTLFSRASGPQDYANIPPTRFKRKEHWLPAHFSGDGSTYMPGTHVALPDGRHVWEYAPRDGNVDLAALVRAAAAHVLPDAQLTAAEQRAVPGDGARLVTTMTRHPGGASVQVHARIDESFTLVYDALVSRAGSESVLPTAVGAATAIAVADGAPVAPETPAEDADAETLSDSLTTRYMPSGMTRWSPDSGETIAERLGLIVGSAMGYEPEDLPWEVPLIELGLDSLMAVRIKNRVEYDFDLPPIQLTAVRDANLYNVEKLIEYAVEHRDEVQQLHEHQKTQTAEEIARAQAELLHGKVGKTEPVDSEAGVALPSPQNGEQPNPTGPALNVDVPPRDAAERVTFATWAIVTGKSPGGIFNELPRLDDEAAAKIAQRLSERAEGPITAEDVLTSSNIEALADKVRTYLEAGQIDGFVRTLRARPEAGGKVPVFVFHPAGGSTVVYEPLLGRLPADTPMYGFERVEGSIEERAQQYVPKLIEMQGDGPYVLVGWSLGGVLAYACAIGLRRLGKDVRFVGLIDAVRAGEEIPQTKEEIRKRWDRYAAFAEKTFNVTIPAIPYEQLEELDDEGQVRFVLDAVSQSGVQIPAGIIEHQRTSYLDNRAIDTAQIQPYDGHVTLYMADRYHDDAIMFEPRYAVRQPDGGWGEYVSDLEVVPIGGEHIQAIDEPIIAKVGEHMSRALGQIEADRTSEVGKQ
UniProt P9WPC5, whole entry: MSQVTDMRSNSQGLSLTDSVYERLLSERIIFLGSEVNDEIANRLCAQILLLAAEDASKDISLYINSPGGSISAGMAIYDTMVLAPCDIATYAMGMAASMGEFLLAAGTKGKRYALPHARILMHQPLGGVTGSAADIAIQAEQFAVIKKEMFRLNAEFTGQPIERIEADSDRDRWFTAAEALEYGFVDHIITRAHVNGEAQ
UniProt P9WPC3, whole entry partner: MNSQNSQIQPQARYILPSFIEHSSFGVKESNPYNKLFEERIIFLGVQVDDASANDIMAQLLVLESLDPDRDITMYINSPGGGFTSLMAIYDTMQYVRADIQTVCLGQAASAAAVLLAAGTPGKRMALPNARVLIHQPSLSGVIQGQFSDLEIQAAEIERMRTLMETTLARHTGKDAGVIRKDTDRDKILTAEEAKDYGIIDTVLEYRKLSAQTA
UniProt A4I591, 1-473: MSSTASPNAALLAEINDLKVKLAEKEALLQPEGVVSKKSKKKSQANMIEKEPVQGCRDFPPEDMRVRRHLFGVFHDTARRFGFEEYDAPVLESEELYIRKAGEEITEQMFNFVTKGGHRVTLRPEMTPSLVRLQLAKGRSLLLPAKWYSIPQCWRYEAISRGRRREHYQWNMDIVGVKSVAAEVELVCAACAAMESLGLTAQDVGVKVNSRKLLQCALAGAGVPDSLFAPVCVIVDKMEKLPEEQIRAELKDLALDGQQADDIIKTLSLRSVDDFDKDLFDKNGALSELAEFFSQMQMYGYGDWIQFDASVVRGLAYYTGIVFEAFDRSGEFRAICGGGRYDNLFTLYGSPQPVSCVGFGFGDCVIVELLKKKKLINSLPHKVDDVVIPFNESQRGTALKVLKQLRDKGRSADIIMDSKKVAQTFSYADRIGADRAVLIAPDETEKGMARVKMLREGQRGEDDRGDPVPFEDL
UniProt P9WFT3, whole entry: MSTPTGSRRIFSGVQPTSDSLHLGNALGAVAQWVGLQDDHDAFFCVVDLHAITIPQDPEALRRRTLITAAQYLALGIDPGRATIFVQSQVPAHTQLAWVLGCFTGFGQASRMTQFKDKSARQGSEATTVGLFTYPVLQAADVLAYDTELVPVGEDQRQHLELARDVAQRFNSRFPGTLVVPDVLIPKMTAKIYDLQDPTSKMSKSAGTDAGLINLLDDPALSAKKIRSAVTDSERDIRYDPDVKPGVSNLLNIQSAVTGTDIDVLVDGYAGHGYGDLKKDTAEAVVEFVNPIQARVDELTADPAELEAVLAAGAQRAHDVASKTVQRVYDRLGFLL

CoaBC: 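Enzyme assay of CoaBC with a phosphate dye (Biomol Green) read at 650 nm. Target: Coenzyme A biosynthesis protein CoaBC, Mycobacterium tuberculosis (UniProt P9WNZ1). Tested at 30 µM. Direction is inferred from only a few compounds that gave an IC50; most scored high, so higher reads as stronger inhibition. Most strong results did not repeat in a second test. About 67,000 compounds were tested under these conditions; 0.06% (about 40) showed 50% or more at least once.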
Pks13 thioesterase: 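Enzyme assay of the thioesterase domain of polyketide synthase 13; the read-out is not stated. Target: Polyketide synthase Pks13, Mycobacterium tuberculosis (UniProt I6X8D2). Concentration: 30 µM. Higher reads as stronger inhibition (inferred from which compounds were picked for retests). Of about 67,000 compounds tested this way, about 300 (0.46%) reached 50% or more in at least one test.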
ClpP1P2: 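Protease assay of ClpP1P2, read by the AMC dye that it sets free. Target: ClpP1P2, Mycobacterium tuberculosis (UniProt P9WPC5 and UniProt P9WPC3). Tested at 50 µM. Direction is inferred from only a few compounds that gave an IC50; most scored high, so higher reads as stronger inhibition. Most other retested compounds had strongly negative values. Size under these conditions: about 69,000 compounds, about 10 of them at 50% or above in at least one test.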
Toxoplasma: 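Assay of Toxoplasma gondii numbers, read through their beta-galactosidase reporter with a colour substrate. Concentration: 10 µM. Higher reads as fewer parasites (inferred from which compounds were picked for retests). Size under these conditions: about 67,000 compounds, about 260 of them at 50% or above in at least one test.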
LiHisRS: 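Enzyme assay of histidyl-tRNA synthetase; the read-out is not stated. Target: Histidine-tRNA ligase, Leishmania infantum (UniProt A4I591). Tested at 30 µM. The record gives no direction; compounds that gave an IC50 in retests scored well above the rest, so higher reads as stronger inhibition. The assay is labelled LdHisRS but filed under L. infantum. Size under these conditions: about 69,000 compounds, about 410 of them at 50% or above in at least one test.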
MtTrpRS: 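Enzyme assay of tryptophanyl-tRNA synthetase; the read-out is not stated. Target: Tryptophan-tRNA ligase, Mycobacterium tuberculosis (UniProt P9WFT3). Tested at 10 µM. Direction is not recorded; retested compounds ran higher, which suggests that high means inhibition. Size under these conditions: about 65,000 compounds, about 64 of them at 50% or above in at least one test.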

The filed quantity is “Percent Effect” (%).
The controls that fix the scale are not given in the record; negative values are as filed.
Compounds were drawn at random from those tested, without regard to their results.
A dash means the value is not listed here; it may have been measured.

| structure | CoaBC | Pks13 thioesterase | ClpP1P2 | Toxoplasma | LiHisRS | MtTrpRS |
|---|---|---|---|---|---|---|
| `Cc1nc(N2C[C@@H](CN3CCCN(C)CC3)[C@@H](CO)C2)c2sccc2n1` | -16.12% | -15.74% | 13.45% | -10% | 29.33% | 11.9% |
| `O=C(O)C(F)(F)F.[H][C@@]12CCN(CCc3ccccc3)C[C@]1([H])[C@H](C(=O)N(C)C)CCO2` | - | - | - | 15.6% | - | - |
| `CN(C)c1nccc(N(C)C2CCCCC2)n1` | -4.132% | -5.858% | -9.283% | -10.6% | -4% | -7.515% |
| `Cc1cc(O)c(OCC(=O)/N=c2\[nH]cc(C)s2)cn1` | 2.834% | -19.07% | -3.157% | 2.866% | 22.86% | 4.767% |
| `CCN1CCn2c(C)cnc2C12CCN(C(=O)c1cscn1)CC2.O=C(O)C(F)(F)F.O=C(O)C(F)(F)F` | - | - | - | -8.944% | - | - |
| `O=C1CC(NS(=O)(=O)c2ccccc2)CN1Cc1ccccc1` (centres unmarked) | 2.789% | 2.524% | -6.303% | -0.6813% | 24.66% | -3.343% |
| `CCN1CCN(Cc2nc(C)no2)CC1` | -7.725% | 12.25% | -4.443% | -7.478% | 4.918% | 17.15% |
| `Cn1cccc1C(O)CNS(=O)(=O)c1ccccc1F` (centres unmarked) | -15.43% | -0.3478% | 7.898% | 8.752% | 1.739% | -4.787% |
| `O=C(NCc1ccccc1F)NCC(O)c1cccc(F)c1` (centres unmarked) | 2.36% | 3.685% | -5.286% | -23% | 19.3% | 1.656% |
| `CC1=C(CCN2CC[C@@H](N3CCC(O)CC3)[C@H](O)C2)C(C)(C)CCC1` | 0% | -7.444% | -7.967% | 1.1% | 4.167% | 2.397% |
| `CC(C)[C@H](NS(C)(=O)=O)C(=O)NCc1cc(-c2ccco2)nn1C` | 3.735% | 5.671% | -2.64% | -10.89% | 8.571% | - |
| `CCOc1ccc(N2CCCN=C2NC(=O)c2cccc(Cl)c2)cc1` | -11.36% | 5.788% | -8.887% | -31.91% | 10.38% | -0.2486% |
| `COc1cc(C(=O)N(Cc2cnn(C)c2)C(C)C)ccc1OC(C)C` | 0.3831% | -12.3% | -29.41% | -4.5% | 15.18% | -7.117% |
| `CN1CCN(C(=O)NC2CC2)Cc2cccnc21.O=C(O)C(F)(F)F` | - | - | - | 4.38% | - | - |
| `Cc1ccc(CN2CC[C@H]3[C@H]2CC(=O)N3c2ccsc2)o1` | 0.1626% | 24.3% | -7.948% | - | 5.882% | 6.05% |
| `CCc1nccn1C1CCCN(C(=O)c2cn3cccnc3n2)C1` (centres unmarked) | 2.491% | 8.717% | 3.788% | -0.2872% | 2.381% | -0.2347% |
| `O=C(NCCNc1ccc(C(F)(F)F)cn1)c1cc(Cl)ccc1F` | 1.567% | -9.533% | -40.02% | 5.451% | 15.04% | -8.025% |
| `Cc1ccc(-n2cccn2)cc1S(=O)(=O)N1C[C@H](C2CC2)[C@@H](N)C1` | -20.56% | -21% | -15.54% | -1.821% | 13.11% | 0.4831% |
| `Cc1nccn1-c1ccc(CNC(=O)c2ccc(O)nc2)cn1` | 4.132% | 0.1528% | -2.501% | -4.255% | 4% | -5.217% |
| `Cc1ccccc1CC(C)NCc1c(C)nn(C)c1N1CCOCC1` (centres unmarked) | -4.219% | -10.16% | -4.084% | - | 20.19% | 1.327% |
| `CC(=O)N[C@@H]1CN(C(=O)c2cc3ccccc3[nH]2)C[C@H]1c1ccc(C)o1` | 4.327% | 6.906% | -5.884% | -0.5821% | 22.92% | -1.256% |
| `COc1ccc(CCNC(=O)c2ccc(=O)n(C)c2)c(Cl)c1` | 4.403% | -3.593% | -4.091% | -39.2% | 15.93% | 3.81% |
| `NC(=O)COc1ccc(CNCc2c(F)cccc2F)cc1` | -1.786% | -1.892% | -19.41% | -20.96% | 18.52% | 5.22% |
| `CCn1cc(NC(=O)NCCN2CCc3ccccc3C2)cn1` | 1.828% | -29.08% | -46.63% | 15.56% | 15.04% | 5.517% |
| `Cc1cc(C(=O)N2C[C@@H]3CN(S(C)(=O)=O)CCO[C@@H]3C2)c(C)o1` | -4.863% | -3.832% | -0.7038% | - | -1.754% | 12.33% |
| `CC(C)Cn1[nH]cc/c1=N\C(=O)CN1CCOC(Cn2cccn2)C1` (centres unmarked) | -10.15% | -5.024% | 15.22% | 3.127% | 1.653% | 3.011% |
| `Cc1nc(CN(C)C(=O)C2CCC(=O)N(CCN(C)C)C2)cs1` (centres unmarked) | 7.851% | -2.665% | -4.368% | -4.438% | -13.33% | 11.9% |
| `Cc1cc(C)c(CNCC(O)c2ccc(F)c(F)c2)c(C)c1` (centres unmarked) | -24.6% | -8.664% | -3.653% | - | 6.25% | -2.668% |
| `O=C(O)C(F)(F)F.O=C(O)C(F)(F)F.[H][C@]12C[C@@H](CN3CCCC3)N(C)[C@@]1([H])CCN(C(=O)c1cccn1C)C2` | - | - | - | 4.435% | - | - |
| `Cc1cc(CNCc2c(C)nn(C)c2N2CCOCC2)no1` | 1.596% | -9.032% | 9.411% | -17.93% | 12% | 1.258% |
| `Cc1cc(NCc2cc3n(n2)CCCN(C(=O)C2CCC2)C3)nc(N)n1` | 11.79% | -2.336% | 1.327% | -10.27% | 18.09% | 3.828% |
| `c1cncc(NCCCNC2CCSC2)c1` (centres unmarked) | 5.495% | -1.037% | 9.438% | -2.443% | 28.57% | 5.047% |
| `Cn1ccc2ccc(C(=O)N3CCN(C(=O)N4CCOCC4)CC3)cc21` | 4.386% | -7.461% | -5.546% | 4.596% | 19.05% | 3.091% |
| `CNc1ncccc1CN1CCN(c2cc(NC3CC3)nc(N)n2)CC1` | 4.854% | -5.202% | -13.29% | -2.143% | 9.639% | -8.471% |
| `O=C(c1ccsc1)N1CC(C(=O)N2CCOCC2)C2(CCOCC2)C1` (centres unmarked) | 0.8872% | -2.183% | -23.75% | -1.109% | 2.913% | -0.3307% |
| `Cc1cc(C)c2c(C(=O)N(C)C)cc(-c3cnc(N)nc3)nc2c1` | -2.521% | -19.14% | -5.046% | -11.27% | 5.983% | 2.401% |
| `CN1CCN(C(=O)C2CCCN2c2ncnc3ccsc23)CC1` (centres unmarked) | 5.186% | -29.82% | -3.38% | 2.065% | 9.524% | -0.000009% |
| `CCc1nc2ccccc2c(=O)n1CC1(O)CCNCC1.Cl` | - | - | - | -5.618% | - | - |
| `C1Cc2nc(CCNc3nc(C4CC4)nc4c3CCNCC4)sc2C1` | -0.3727% | -16.45% | -32.26% | 77.67% | 17.5% | 2.026% |
| `O=C(O)C(F)(F)F.c1cnc(N2CCOCC3(CN(Cc4nccs4)CCO3)C2)nc1` (centres unmarked) | - | - | - | -1.016% | - | - |
| `Cn1cccc1C(=O)N1CCn2nnc(COc3cccnc3)c2C1.O=C(O)C(F)(F)F` | - | - | - | -3.941% | - | - |
| `O=C(O)c1c[nH]c2cc(NS(=O)(=O)c3cccc(Cl)c3F)ccc12` | 3.855% | 2.874% | 4.338% | 0.4235% | 27.4% | 2.958% |
| `CNC(=O)COC1COC2(CCN(Cc3cccnc3)CC2)C1.O=C(O)C(F)(F)F` (centres unmarked) | - | - | - | 14.39% | - | - |
| `Cc1cnn(CC2CCCN2C(=O)c2ccc3c(c2)nnn3C)c1` (centres unmarked) | -2.152% | -12.31% | -2.696% | -0.3802% | -1.205% | -0.136% |
| `CC1COCCN1Cc1nc(-c2ccc(Br)s2)no1` (centres unmarked) | 17.98% | -5.945% | -12.44% | 5.9% | 3.571% | -1.984% |
| `CCc1ncc(C(=O)N2CCC(O)(CN3CCOCC3)C(C)(C)C2)cn1` (centres unmarked) | 10.77% | -15.54% | -10.33% | -5.246% | 14.29% | 0.3882% |
| `Cc1ccc(F)cc1S(=O)(=O)NCc1cccc(CS(C)(=O)=O)c1` | -2.703% | 20.31% | -2.557% | 3.546% | -8.73% | 0.2241% |
| `CC(C)c1nc(CC(=O)Nc2cnccc2O)cs1` | 7.006% | -4.069% | -7.287% | 1.492% | 15.54% | 8.691% |
| `O=c1ccc2c(n1CCN1CCCC1)CCN(Cc1ccoc1)CC2` | -6.237% | - | 1.976% | - | -91.43% | -1.069% |
| `CC(=O)N1CCN(C(=O)CCCc2nc(C(C)C)no2)CC1` | 0.7712% | -1.89% | 19.46% | - | -25.84% | -1.338% |
| `Cc1cccc(CN2CCN(c3nc(CO)cs3)CC2)c1` | 5.651% | -1.074% | -3.884% | 13.78% | 21.43% | 1.27% |
| `Cc1nnc(NC(=O)NC(C)Cn2cccn2)s1` (centres unmarked) | 2.389% | -11.03% | -13.59% | 4.991% | 13.46% | -5.801% |
| `COC(=O)CC1CCN(C(=O)c2ccc(-n3nnnc3C)cc2)CC1` | 2.066% | 6.147% | -2.96% | - | 8.696% | -1.929% |
| `CNC(=O)CN1CCCC12CCN(C(=O)c1ccccc1F)CC2.O=C(O)C(F)(F)F` | - | - | - | -0.5547% | - | - |
| `CCN(Cc1nc(C2CC2)no1)Cc1ccc(C#N)cc1F` | 4.391% | 11.24% | -13.48% | 12.78% | 3.39% | -2.287% |
| `C[C@@H]1CN(c2cc(N3CCC(O)CC3)ncn2)C[C@@]1(O)C1CC1` | 1.79% | -15.94% | -0.7871% | -4.743% | 11.48% | -4.882% |
| `O=C(Cn1cnc(-c2ccccc2)cc1=O)Nc1ccncc1` | 3.929% | -7.61% | -9.405% | -7.095% | 16.5% | 1.213% |
| `CNC(=O)C(CC(C)C)NC(=O)c1cccc(-c2n[nH]c(C)n2)c1` (centres unmarked) | 11.36% | -6.89% | 2.536% | 0.8348% | 10.96% | 0.7802% |

Repeated from the top, 6 entries:

For Cc1nc(N2C[C@@H](CN3CCCN(C)CC3)[C@@H](CO)C2)c2sccc2n1 the result was CoaBC: -16.12%; Pks13 thioesterase: -15.74%; ClpP1P2: 13.45%; Toxoplasma: -10%; LiHisRS: 29.33%; MtTrpRS: 11.9%.
For O=C(O)C(F)(F)F.[H][C@@]12CCN(CCc3ccccc3)C[C@]1([H])[C@H](C(=O)N(C)C)CCO2 the result was Toxoplasma: 15.6%.
For CN(C)c1nccc(N(C)C2CCCCC2)n1 the result was CoaBC: -4.132%; Pks13 thioesterase: -5.858%; ClpP1P2: -9.283%; Toxoplasma: -10.6%; LiHisRS: -4%; MtTrpRS: -7.515%.
For Cc1cc(O)c(OCC(=O)/N=c2\[nH]cc(C)s2)cn1 the result was CoaBC: 2.834%; Pks13 thioesterase: -19.07%; ClpP1P2: -3.157%; Toxoplasma: 2.866%; LiHisRS: 22.86%; MtTrpRS: 4.767%.
For CCN1CCn2c(C)cnc2C12CCN(C(=O)c1cscn1)CC2.O=C(O)C(F)(F)F.O=C(O)C(F)(F)F the result was Toxoplasma: -8.944%.
For O=C1CC(NS(=O)(=O)c2ccccc2)CN1Cc1ccccc1 (centres unmarked) the result was CoaBC: 2.789%; Pks13 thioesterase: 2.524%; ClpP1P2: -6.303%; Toxoplasma: -0.6813%; LiHisRS: 24.66%; MtTrpRS: -3.343%.